According to patent US11407796B2, “Antisecretory factor 17” (LANTMÄNNEN AS-FAKTOR AB, priority 2016, dated 2022):
“And” between values parts separate entries of the source, which are not always exact repeats. Equal values may be shown once. Read-outs that look alike come from different tables or passages of the source. Part of at least one peptide drawing is inferred or uncertain, most often the ends. Peptide text beside a SMILES is read from it. * marks the point of attachment. Cys(free,S-linked) = N[C@@H](CS*)C(=O)O

Tested on: cholera toxin induced intestinal fluid secretion
Details: rat, in vivo

| SMILES | weight of accumulated fluid in the intestinal loop, Mean ± SEM | weight of accumulated fluid in the intestinal loop, Mean ± SEM (iv) | effectiveness compared with AF-16 for normalizing pathological fluid transport | inhibition of the cholera secretion |
| --- | --- | --- | --- | --- |
| CC(C)C[C@H](NC(=O)CNC(=O)[C@@H](NC(=O)[C@H](CC(N)=O)NC(=O)[C@H](CC(N)=O)NC(=O)[C@H](CCC(=O)O)NC(=O)[C@@H]1CCCN1C(=O)[C@H](CC(N)=O)NC(=O)[C@H](CO)NC(=O)[C@H](CCCNC(=N)N)NC(=O)[C@@H](NC(=O)[C@H](CCCCN)NC(=O)[C@H](CO)NC(=O)[C@H](Cc1c[nH]cn1)NC(=O)[C@H](CS)NC(=O)[C@@H](N)C(C)C)[C@@H](C)O)C(C)C)C(=O)O [AF16, VCHSKTRSNPENNVGL] (H-VCHSKTRSNPENNVGL-OH; N-terminus and C-terminus assumed) | 161 (?) mg/cm and 298 (?) mg/cm | 168 (?) mg/cm |  |  |
| CC(C)C[C@H](NC(=O)CNC(=O)[C@@H](NC(=O)[C@H](CC(N)=O)NC(=O)[C@H](CC(N)=O)NC(=O)[C@H](CCC(=O)O)NC(=O)[C@@H]1CCCN1C(=O)[C@H](CC(N)=O)NC(=O)[C@H](CO)NC(=O)[C@H](CCCNC(=N)N)NC(=O)[C@@H](NC(=O)[C@H](CCCCN)NC(=O)[C@H](CO)NC(=O)[C@H](Cc1c[nH]cn1)NC(=O)[C@H](CSSC[C@H](N)C(=O)O)NC(=O)[C@@H](N)C(C)C)[C@@H](C)O)C(C)C)C(=O)O [AF-17, VC(C)HSKTRSNPENNVGL] (H-VC(Cys(free,S-linked))HSKTRSNPENNVGL-OH; N-terminus and C-terminus assumed) | 152 ± 14 mg/cm | 166 ± 9 mg/cm and 190 ± 17 mg/cm | at least as effective as AF-16 | dose-dependent inhibition |
